Reference: PubChem BioAssay AID1224828 (NIAID, 2016)

Assay: 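Regulators linking TLR4 signalling to p65 nuclear translocation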 (primary screen)
System: mouse RAW264.7 G9 macrophage reporter cells (GFP-p65, Tnf promoter-mCherry)
Reagents: siRNA pool against mouse genes, 100 nM
Timing: 2 days siRNA transfection, then 40 min LPS before fixation
Challenge: LPS (Salmonella minnesota R595) at 10 ng/ml
Measured: 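Microscopy ratio of nuclear to perinuclear-ring GFP-p65 signal, scaled to the plate median; gene score is the average of two replicate robust z-scores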
Reading the numbers: p65 translocation robust z-score: higher = more nuclear NF-kappaB p65 after LPS than the plate median; nuclear/cytoplasmic p65 ratio: higher = more nuclear NF-kappaB p65
Hit rule: 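Active if robust z is above 3.3 (negative regulators) or below -1.56, the Tlr4 control median (positive regulators); activity score 50 or more; control wells not called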
Meaning of the calls: active = hit (p65 shift raised or lowered); inactive = no clear change
The deposit covers about 17,000 reagents; below is a random part of them. Of all reagents, 762 (4.5%) are marked active. 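Active calls include both raised and lowered p65 entry, mostly lowered; wells with fewer than 50 cells lack a z-score.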 Raw values vary from plate to plate and are shown uncorrected. A number with no mark means an inactive call.

no.	gene symbol	p65 translocation robust z-score	nuclear/cytoplasmic p65 ratio, rep 1	nuclear/cytoplasmic p65 ratio, rep 2	low cell count flag
1	Szrd1	3.28	2.31	1.76	enough cells to score
2	Spats2l	1.01	1.56	1.57	enough cells to score
3	Krtap9-1	-2.29 (active)	1.23	1.12	enough cells to score
4	Trim34a	1.59	1.62	1.32	enough cells to score
5	Bhlhe40	0.45	1.62	1.74	enough cells to score
6	Col27a1	-0.72	1.49	1.65	enough cells to score
7	Trim50	0.98	1.52	1.22	enough cells to score
8	Pdcd4	1.12	1.64	1.52	enough cells to score
9	Rbm41	-0.2	1.57	1.49	enough cells to score
10	Ola1	1.28	1.39	1.4	enough cells to score
11	Acsf3	1.5	1.82	2.07	enough cells to score
12	Dbn1		1.23	1.58	fewer than 50 cells per well; well left out of scoring
13	Kin	-0.92	1.38	1.24	enough cells to score
14	Aldh2	0.59	1.63	1.78	enough cells to score
15	Rasd1	-1.61 (active)	1.28	2.26	enough cells to score
16	Ear1		1.27	1.2	fewer than 50 cells per well; well left out of scoring
17	Il2		1.73	1.42	fewer than 50 cells per well; well left out of scoring
18	Or4c113	-0.29	1.77	1.48	enough cells to score
19	Pax1	-1.37	1.32	1.22	enough cells to score
20	Elovl1	-1.35	1.13	1.2	enough cells to score
21	Impdh2		1.51	1.45	fewer than 50 cells per well; well left out of scoring
22	Pdxp	-0.34	1.34	1.43	enough cells to score
23	Slc7a2	1.52	1.61	1.41	enough cells to score
24	Cend1	-0.83	1.39	1.37	enough cells to score

3 entries from above, sorted by “nuclear/cytoplasmic p65 ratio, rep 1”, high to low.
gene symbol	p65 translocation robust z-score	nuclear/cytoplasmic p65 ratio, rep 1	nuclear/cytoplasmic p65 ratio, rep 2	low cell count flag
Impdh2		1.51	1.45	fewer than 50 cells per well; well left out of scoring
Pax1	-1.37	1.32	1.22	enough cells to score
Elovl1	-1.35	1.13	1.2	enough cells to score
